# No constants are given. Whether binding was seen depends on the method and setting. Binding can be weak; no strength is given.
# Protein sequences, listed by entry. Tags and fused reporters are not part of them. Lines headed by an entry give the natural chain unless they say otherwise; changes in a name come on top.
# UniProt Q9NRA1: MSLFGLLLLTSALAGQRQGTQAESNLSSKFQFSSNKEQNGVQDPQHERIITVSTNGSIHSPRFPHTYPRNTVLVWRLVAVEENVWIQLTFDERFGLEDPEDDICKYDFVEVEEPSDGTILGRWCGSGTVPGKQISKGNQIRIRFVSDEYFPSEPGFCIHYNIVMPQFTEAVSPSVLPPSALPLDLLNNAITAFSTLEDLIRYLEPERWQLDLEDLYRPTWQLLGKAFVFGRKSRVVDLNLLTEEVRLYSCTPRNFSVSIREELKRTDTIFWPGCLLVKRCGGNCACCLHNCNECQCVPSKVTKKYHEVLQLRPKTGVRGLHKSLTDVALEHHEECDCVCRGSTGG
# Biological target: Recombinant human PDGF-C from R&D Systems (1687-CC/CF; Val235-Gly345) (human) (UniProt Q9NRA1)
# Experiment: competition ELISA: biotinylated PDGF-C pre-incubated with antibody, then added to coated PDGF-Rα/Fc; blocked partner PDGF-Rα/Fc; x axis fold molar excess Ab/PDGF-C
row,Binder,binding
1,"anti-PDGF-C antibody 5A2 (antibody, IgG2b, V domains shown, Mouse monoclonal from hybridoma, IgG2b, kappa; also called mAb 5A2; hybridoma LMBP 9484CB) VH: EVQLVESGGDLVKPGGSLKLSCAASGFTFSNYGMSWVRQTPDKRLEWVATIGSGGHYTYYPDSVKGRFTISRDSAKSTLYLQMSSLKSEDTAIYYCARQAPLWDCSDYWGQGTTLTVSS VL: DVLMTQTPLSLPVSLGDQASISCRSNQSIVHSNGDTYLEWYLQKPGQSPKLLIYKVSNRFSGVPDRFSGSGSGTDFTLKISRVEAEDLGVYYCFQGSHVPPTFGGGTKLEIK",binds
2,"anti-PDGF-C antibody 5H7 (antibody, IgG1, V domains shown, Mouse monoclonal from hybridoma, IgG1, kappa; also called mAb 5H7; hybridoma LMBP 9485CB) VH: EVQLVESGGDLVKPGGSLKLSCAASGFTFSSYGMSWVRQTPDKRLEWVATIGYGGSFTYYPDSMKGRFTISRDNAKNTLFLQMSSLKSEDTAIYYCVRQAPLWDYFDYWGQGTTLTVSS VL: DVLMTQTPLSLPVSLGDQASISCRSSQTIVHSDGTTYLEWYLQKAGQSPKLLIYKVSNRFSGVPDRFSGSGSGTDFTLKISRVEAEDLGVYYCFQGSHVPPTFGGGTKLEIK",binds
3,"anti-PDGF-C antibody 2D3 (antibody, IgG1, V domains shown, Mouse monoclonal from hybridoma, IgG1, kappa; also called mAb 2D3; hybridoma LMBP 9483CB) VH: EVQLVESGGDLVKPGGSLKLSCAASGFTFSNYGMSWVRQTPDKRLEWVATIGSGGSYTYYPDSVKGRFTISRDSAKNTLYLQMSSLKSEDTAMYYCARQAPLWDYSDYWGQGTTLTVSS VL: DVLMTQTPLSLPVSLGDQASISCRSNQTIVHSNGDTYLEWYLQKPGQSPNLLIYKVSNRFSGVPDRFSGSGSGTDFTLKISRVEAEDLGVYYCFQGSHVPPTFGGGTKLEIK",binds

# Further lines, results first:
row,binding,Binder
1,binds,"anti-PDGF-C antibody 29H1 (antibody, IgG1, V domains shown, Mouse monoclonal from hybridoma, IgG1, kappa; also called mAb 29H1; hybridoma LMBP 9487CB) VH: EVQLVESGGDLVKPGGSLKLSCAASGFTFSNYGMSWVRQTPDKRLEWVATIGSGGHYTYYPDSVKGRFTISRDSAKSTLYLQMSSLRSDDTAIYYCARQAPLWDCSDYWGQGTTLTVSS VL: DVLMTQTPLSLPVSLGDQASISCRSNQSIVHSNGDTYLEWYLQKPGQSPNLLIYKVSNRFSGVPDRFSGSGSGTDFTLKISRVEAEDLGVYYCFQGSHVPPTFGGGTKLEIK"
2,binds,"anti-PDGF-C antibody 16B1 (antibody, IgG1, V domains shown, Mouse monoclonal from hybridoma, IgG1, kappa; VH same as 2D3, VL same as 5A2; also called mAb 16B1; hybridoma LMBP 9486CB) VH: EVQLVESGGDLVKPGGSLKLSCAASGFTFSNYGMSWVRQTPDKRLEWVATIGSGGSYTYYPDSVKGRFTISRDSAKNTLYLQMSSLKSEDTAMYYCARQAPLWDYSDYWGQGTTLTVSS VL: DVLMTQTPLSLPVSLGDQASISCRSNQSIVHSNGDTYLEWYLQKPGQSPKLLIYKVSNRFSGVPDRFSGSGSGTDFTLKISRVEAEDLGVYYCFQGSHVPPTFGGGTKLEIK"

# Biological target: Recombinant human PDGF-C from R&D Systems (1687-CC/CF; Val235-Gly345) (human) (UniProt Q9NRA1)
# Experiment: SPR as in Example 3
row,binding,Binder
1,binds,"Humanized 5H7 anti-PDGF-C antibody (antibody, V domains shown, also called humanized mAb 5H7) VH: EVQLLESGGGLVQPGGSLRLSCAASGFTFSSYGMSWVRQTPGKGLEWVATIGYGGSFTYYPDSMKGRFTISRDNAKNTLYLQMNSLRAEDTAVYYCARQAPLWDYFDYWGQGTLLTVSS VL: DVVMTQSPLSLPVTLGQPASISCRSSQTIVHSDGTTYLEWYLQKPGQSPRLLIYKVSNRFSGVPDRFSGSGSGTDFTLKISRVEAEDVGVYYCFQGSHVPPTFGQGTKLEIK"

# From patent US20150232546A1 (THROMBOGENICS, published 2015)
